In paper doi:10.1101/2023.08.09.552644:
These are yes or no findings as the source states them, for the method shown. In cells and extracts the contact can be indirect. Some results given as binding are weak or reduced against the parent protein; the word gives no strength. For some of these results: Sequences can lack the tags named with a protein.

The chains behind the UniProt entries cited, without tags or fusion partners.
UniProt Q9WVH4: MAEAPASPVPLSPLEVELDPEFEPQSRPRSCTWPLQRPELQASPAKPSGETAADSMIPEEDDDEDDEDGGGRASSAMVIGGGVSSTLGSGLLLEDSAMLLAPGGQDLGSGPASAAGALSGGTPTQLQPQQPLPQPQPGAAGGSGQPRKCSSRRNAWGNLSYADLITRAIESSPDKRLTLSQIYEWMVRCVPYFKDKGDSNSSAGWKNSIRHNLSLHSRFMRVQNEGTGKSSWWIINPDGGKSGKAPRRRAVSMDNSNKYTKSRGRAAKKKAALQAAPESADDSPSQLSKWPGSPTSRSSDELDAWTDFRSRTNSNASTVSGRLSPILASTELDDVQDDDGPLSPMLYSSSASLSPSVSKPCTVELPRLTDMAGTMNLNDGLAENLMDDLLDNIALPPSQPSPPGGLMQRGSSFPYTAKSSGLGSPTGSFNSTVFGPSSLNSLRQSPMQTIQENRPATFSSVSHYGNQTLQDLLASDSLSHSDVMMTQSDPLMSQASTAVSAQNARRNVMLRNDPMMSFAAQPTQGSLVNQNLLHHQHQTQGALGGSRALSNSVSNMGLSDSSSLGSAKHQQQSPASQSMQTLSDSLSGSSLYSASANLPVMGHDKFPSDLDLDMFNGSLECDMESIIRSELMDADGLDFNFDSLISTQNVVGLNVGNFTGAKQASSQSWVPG
UniProt Q9WVH3: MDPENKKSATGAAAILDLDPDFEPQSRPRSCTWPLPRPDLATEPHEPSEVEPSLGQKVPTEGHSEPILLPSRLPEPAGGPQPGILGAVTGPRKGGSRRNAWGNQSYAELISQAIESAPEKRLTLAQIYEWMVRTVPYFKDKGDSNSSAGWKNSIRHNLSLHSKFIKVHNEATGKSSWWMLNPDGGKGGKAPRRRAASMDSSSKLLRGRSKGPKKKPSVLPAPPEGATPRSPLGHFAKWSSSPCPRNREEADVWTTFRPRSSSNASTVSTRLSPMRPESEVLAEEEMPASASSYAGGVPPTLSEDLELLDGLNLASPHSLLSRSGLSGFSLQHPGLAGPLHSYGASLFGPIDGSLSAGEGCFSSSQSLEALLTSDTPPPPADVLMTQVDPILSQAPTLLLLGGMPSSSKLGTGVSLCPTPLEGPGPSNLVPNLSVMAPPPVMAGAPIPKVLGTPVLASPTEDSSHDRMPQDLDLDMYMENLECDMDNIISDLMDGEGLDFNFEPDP
UniProt Q9R1E0: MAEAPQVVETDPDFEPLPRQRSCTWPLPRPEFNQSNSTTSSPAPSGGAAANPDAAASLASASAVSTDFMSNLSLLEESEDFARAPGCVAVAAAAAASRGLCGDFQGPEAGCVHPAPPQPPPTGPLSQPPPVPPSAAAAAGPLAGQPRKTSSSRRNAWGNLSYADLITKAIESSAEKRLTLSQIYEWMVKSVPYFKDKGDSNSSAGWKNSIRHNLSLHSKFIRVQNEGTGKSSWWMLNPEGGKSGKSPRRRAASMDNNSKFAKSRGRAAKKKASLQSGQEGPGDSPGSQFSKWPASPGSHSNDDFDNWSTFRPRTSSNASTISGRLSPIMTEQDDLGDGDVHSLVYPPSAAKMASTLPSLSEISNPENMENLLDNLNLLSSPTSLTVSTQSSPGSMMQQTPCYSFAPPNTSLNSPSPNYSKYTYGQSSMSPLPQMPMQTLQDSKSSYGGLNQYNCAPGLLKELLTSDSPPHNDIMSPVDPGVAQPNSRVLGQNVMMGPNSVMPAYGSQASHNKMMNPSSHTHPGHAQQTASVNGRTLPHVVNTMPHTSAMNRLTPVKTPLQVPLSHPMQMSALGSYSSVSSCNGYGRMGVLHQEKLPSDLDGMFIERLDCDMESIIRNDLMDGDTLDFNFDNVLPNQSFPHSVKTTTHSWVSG
UniProt P06537: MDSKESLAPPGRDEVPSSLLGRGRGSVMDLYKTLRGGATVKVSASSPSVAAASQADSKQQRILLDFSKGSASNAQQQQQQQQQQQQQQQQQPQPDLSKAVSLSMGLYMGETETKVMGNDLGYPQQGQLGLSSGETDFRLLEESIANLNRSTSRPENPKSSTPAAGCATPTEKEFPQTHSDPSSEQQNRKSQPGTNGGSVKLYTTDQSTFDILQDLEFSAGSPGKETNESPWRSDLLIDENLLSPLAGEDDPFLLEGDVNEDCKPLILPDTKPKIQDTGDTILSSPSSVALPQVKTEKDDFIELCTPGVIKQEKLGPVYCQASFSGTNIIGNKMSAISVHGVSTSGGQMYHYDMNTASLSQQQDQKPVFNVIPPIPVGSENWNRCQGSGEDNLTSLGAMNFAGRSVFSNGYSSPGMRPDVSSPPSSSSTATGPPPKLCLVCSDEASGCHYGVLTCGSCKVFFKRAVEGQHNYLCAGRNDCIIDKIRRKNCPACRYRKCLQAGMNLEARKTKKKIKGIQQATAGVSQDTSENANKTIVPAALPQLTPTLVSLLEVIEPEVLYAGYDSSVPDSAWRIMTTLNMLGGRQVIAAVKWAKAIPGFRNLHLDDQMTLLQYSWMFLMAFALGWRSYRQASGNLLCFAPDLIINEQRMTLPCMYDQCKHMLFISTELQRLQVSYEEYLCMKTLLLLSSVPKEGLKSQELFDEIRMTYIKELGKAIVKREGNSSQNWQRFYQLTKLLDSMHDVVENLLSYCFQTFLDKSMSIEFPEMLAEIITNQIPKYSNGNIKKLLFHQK

Key:
[1] = biological target: Foxo3 (NanoBiT construct) (mouse) (UniProt Q9WVH4); assay: split reporter
[2] = biological target: Foxo4 (NanoBiT construct) (mouse) (UniProt Q9WVH3); assay: split reporter
[3] = biological target: Foxo1 (NanoBiT construct) (mouse) (UniProt Q9R1E0); assay: split reporter
[4] = biological target: glucocorticoid receptor (Nr3c1), LgBiT-tagged (NanoBiT construct) (mouse) (UniProt P06537); assay: split reporter
[5] = biological target: Foxo1 (FLAG- or HA-tagged, co-immunoprecipitation construct) (mouse) (UniProt Q9R1E0); assay: co-IP

| Binder | binding [1] | binding [2] | binding [3] | binding [4] | binding [5] |
| --- | --- | --- | --- | --- | --- |
| Mkl1 (NanoBiT construct) (protein, UniProt Q8K4J6 1-964) MTLLEPEMLMMAVQSVLQLKLQQRRTREELVSQGIMPPLKSPAAFHEQRRSLERARTEDYLKRKIRSRPERAELVRMHILEETSAEPSLQAKQLKLKRARLADDLNEKIAQRPGPMELVEKNILPVESSLKEAIIVGQVNYPKVADSSSFDEDSSDALSPEQPASHESQGSVPSPLESRVSDPLPSATSISPTQVLSQLPMAPDPGETLFLAEQPPLPPAPLLPPSLANGSIVPTAKPAPTLIKQSQPKSASEKSQRSKKAKELKPKVKKLKYHQYIPPDQKQDKGAPAMDSSYAKILQQQQLFLQLQILNQQQQQQQQQHYNYQAILPAPPKPSAETPGSSAPTPSRSLSTSSSPSSGTPGPSGLARQSSTALAAKPGALPANLDDMKVAELKQELKLRSLPVSGTKTELIERLRAYQDQVSPAPGAPKAPATTSVLSKAGEVVVAFPAALLSTGSALVTAGLAPAEMVVATVTSNGMVKFGSTGSTPPVSPTPSERSLLSTGDENSTPGDAFGEMVTSPLTQLTLQASPLQIVKEEGARAASCCLSPGARAELEGLDKDQMLQEKDKQIEELTRMLQQKQQLVELLRLQLEQQKRAQQPAPASSPVKRESGFSSCQLSCQPQGSAHAFGSGLVVPTTNHGDTQAPAPESPPVVVKQEAGPPEPDLAPSSQLLLGSQGTSFLKRVSPPTLVTDSTGTHLILTVTNKSADGPGLPAGSPQQPLSQPGSPAPGPPAQMDLEHPPQPPFATPTSLLKKEPPGYEETVTQQPKQQENGSSSQHMDDLFDILIQSGEISADFKEPPSLPGKEKSPPAAAAYGPPLTPQPSPLSELPQAAPPPGSPTLPGRLEDFLESSTGLPLLTSGHEGPEPLSLIDDLHSQMLSSSAILDHPPSPMDTSELHFAPEPSSGMGLDLAVGHLDSMDWLELSSGGPVLSLAPLSTAAPSLFSMDFLDGHDLQLHWDSCL | binds | binds | binds | binds | – |
| Mkl1 (FLAG- or HA-tagged, co-immunoprecipitation construct) (protein, UniProt Q8K4J6 1-964) MTLLEPEMLMMAVQSVLQLKLQQRRTREELVSQGIMPPLKSPAAFHEQRRSLERARTEDYLKRKIRSRPERAELVRMHILEETSAEPSLQAKQLKLKRARLADDLNEKIAQRPGPMELVEKNILPVESSLKEAIIVGQVNYPKVADSSSFDEDSSDALSPEQPASHESQGSVPSPLESRVSDPLPSATSISPTQVLSQLPMAPDPGETLFLAEQPPLPPAPLLPPSLANGSIVPTAKPAPTLIKQSQPKSASEKSQRSKKAKELKPKVKKLKYHQYIPPDQKQDKGAPAMDSSYAKILQQQQLFLQLQILNQQQQQQQQQHYNYQAILPAPPKPSAETPGSSAPTPSRSLSTSSSPSSGTPGPSGLARQSSTALAAKPGALPANLDDMKVAELKQELKLRSLPVSGTKTELIERLRAYQDQVSPAPGAPKAPATTSVLSKAGEVVVAFPAALLSTGSALVTAGLAPAEMVVATVTSNGMVKFGSTGSTPPVSPTPSERSLLSTGDENSTPGDAFGEMVTSPLTQLTLQASPLQIVKEEGARAASCCLSPGARAELEGLDKDQMLQEKDKQIEELTRMLQQKQQLVELLRLQLEQQKRAQQPAPASSPVKRESGFSSCQLSCQPQGSAHAFGSGLVVPTTNHGDTQAPAPESPPVVVKQEAGPPEPDLAPSSQLLLGSQGTSFLKRVSPPTLVTDSTGTHLILTVTNKSADGPGLPAGSPQQPLSQPGSPAPGPPAQMDLEHPPQPPFATPTSLLKKEPPGYEETVTQQPKQQENGSSSQHMDDLFDILIQSGEISADFKEPPSLPGKEKSPPAAAAYGPPLTPQPSPLSELPQAAPPPGSPTLPGRLEDFLESSTGLPLLTSGHEGPEPLSLIDDLHSQMLSSSAILDHPPSPMDTSELHFAPEPSSGMGLDLAVGHLDSMDWLELSSGGPVLSLAPLSTAAPSLFSMDFLDGHDLQLHWDSCL | – | – | – | – | binds |

Next, values leading:

| binding [1] | binding [2] | binding [3] | binding [4] | binding [5] | Binder |
| --- | --- | --- | --- | --- | --- |
| – | – | – | – | binds | Mkl2 (FLAG- or HA-tagged, co-immunoprecipitation construct) (protein, UniProt P59759 1-1080) MIDSSKKQPQGFPEILTAEDFEPFKEKECLEGSNQKSLKEVLQLRLQQRRTREQLVDQGIMPPLKSPAAFHEQIKSLERARTENFLKHKIRSRPDRSELVRMHILEETFAEPSLQATQMKLKRARLADDLNEKIAQRPGPMELVEKNILPVDSSVKEAIIGVVKEDYPHTHGEFSFDEDSSDALSPDQPASQESQGSAASPSEPKVSASPPPVTASTPAQFTSVSPAVPEFLKTPLTADQPPTRSTAPVLPTNTVSSAKSGPMLVKQSHPKNPNDKHRSKKCKDPKPRVKKLKYHQYIPPNQKGEKSEPQMDSNYARLLQQQQLFLQLQILSQQQQQQQQQHYNYQTILPAPIKTDKNSSSGSNSGSSSSMPARRPGPLPSSLDDLKVSELKTELKLRGLPVSGTKPDLIERLKPYQEVTSSNLATGSIVAVSSATIVTSNPEVTVALPVTTLHNAVTSSVSTFKADLALPATSSVPHVENAHSPLPISPSPSEQSSLSTDDTNMTDTFTEIMTMMSPSQLLCSSPLRVVSHDDSLSPSSSTLSTLELDAAEKDRKLQEKEKQIEELKRKLEQEQKLVEVLKMQLEVEKRGQQRPPDPQPSDPPHPFNTSDPKHGSVGSSIKDEASLPDCSSPQQPITVPGHSVGQPISTGSQTLVAKKTVVVKQEVPMAQAEQQNVVSQFYLSSQGQPPALVAQPQALLTTQTTQLLLPVSIQGSNVTSVQLPVGSLQLQTPAQGRVQAQPHVAAATQVPAAALPSALTSALPQKQEAFPQHVLGQPQPVRKVFTNSAPNTVLQYQRQPGPTNQQPFVSKTSNPALQSRTAPLAPLQNGPSLASKPSSPPPPQQFVVQHSLFATPITKTKDPPRYEEAIKQTRSTQPALPEVSSVHSQQMDDLFDILIKSGEISFPIKEEPSPISKMKPVTASITTMPVNTVVSRPPPQVQIAPPVSLEPVNSLSASLENQLEAFLDGTLPSATDTGPLQNSSEDRESFSLIEDLQNDLLSHSSMLYQSHSPMETSEAQLVSGTPCLSLDLSDSNLDNMEWLDITMPTTSSGLTPLSTTAPSMFSADFLDPQDLPLPWD |
| binds | binds | binds | binds | – | Mkl2 (NanoBiT construct) (protein, UniProt P59759 1-1080) MIDSSKKQPQGFPEILTAEDFEPFKEKECLEGSNQKSLKEVLQLRLQQRRTREQLVDQGIMPPLKSPAAFHEQIKSLERARTENFLKHKIRSRPDRSELVRMHILEETFAEPSLQATQMKLKRARLADDLNEKIAQRPGPMELVEKNILPVDSSVKEAIIGVVKEDYPHTHGEFSFDEDSSDALSPDQPASQESQGSAASPSEPKVSASPPPVTASTPAQFTSVSPAVPEFLKTPLTADQPPTRSTAPVLPTNTVSSAKSGPMLVKQSHPKNPNDKHRSKKCKDPKPRVKKLKYHQYIPPNQKGEKSEPQMDSNYARLLQQQQLFLQLQILSQQQQQQQQQHYNYQTILPAPIKTDKNSSSGSNSGSSSSMPARRPGPLPSSLDDLKVSELKTELKLRGLPVSGTKPDLIERLKPYQEVTSSNLATGSIVAVSSATIVTSNPEVTVALPVTTLHNAVTSSVSTFKADLALPATSSVPHVENAHSPLPISPSPSEQSSLSTDDTNMTDTFTEIMTMMSPSQLLCSSPLRVVSHDDSLSPSSSTLSTLELDAAEKDRKLQEKEKQIEELKRKLEQEQKLVEVLKMQLEVEKRGQQRPPDPQPSDPPHPFNTSDPKHGSVGSSIKDEASLPDCSSPQQPITVPGHSVGQPISTGSQTLVAKKTVVVKQEVPMAQAEQQNVVSQFYLSSQGQPPALVAQPQALLTTQTTQLLLPVSIQGSNVTSVQLPVGSLQLQTPAQGRVQAQPHVAAATQVPAAALPSALTSALPQKQEAFPQHVLGQPQPVRKVFTNSAPNTVLQYQRQPGPTNQQPFVSKTSNPALQSRTAPLAPLQNGPSLASKPSSPPPPQQFVVQHSLFATPITKTKDPPRYEEAIKQTRSTQPALPEVSSVHSQQMDDLFDILIKSGEISFPIKEEPSPISKMKPVTASITTMPVNTVVSRPPPQVQIAPPVSLEPVNSLSASLENQLEAFLDGTLPSATDTGPLQNSSEDRESFSLIEDLQNDLLSHSSMLYQSHSPMETSEAQLVSGTPCLSLDLSDSNLDNMEWLDITMPTTSSGLTPLSTTAPSMFSADFLDPQDLPLPWD |
